In all, about 320,000 compounds went through this assay and about 22,000 (6.9%) were called active. This list was built around the results that the source calls inconclusive (neither active nor inactive); the mix of calls is not that of the screen. Calls come from the whole dose curve; as a rule, active = well fitted inhibition curve with a large enough effect; inconclusive = small, poorly fitted or top-dose-only effect, or another doubt; inactive = no such curve, though single readings can be large or run the other way. Where the call is inconclusive, the potency comes from a doubtful curve fit.
assay: Primary qHTS for delayed death inhibitors of the malarial parasite plastid, 96 hour incubation; settings: P. falciparum luciferase reporter growth; series mostly up to 28.7 µM; activity change, negative = inhibition: at the top concentration
Summary of the method: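 Cell-based qHTS: luciferase-tagged P. falciparum in erythrocytes (2% hematocrit, 0.05% parasitemia final) incubated with compounds for 96 hours, 37 C, 5% CO2; luciferase detection reagent then added and luminescence measured.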
% is set by controls: 0 for no effect and ±100 for the full control effect; potency is the fitted concentration of half-maximal effect.

Structure (SMILES) | activity change, negative = inhibition | Potency
COc1ccc(-c2csc(/N=C/N(C)C)n2)cc1OC | inactive: 70.4% | 
N#Cc1c(-c2ccccc2)c(-c2ccccc2)n(Cc2ccco2)c1NC(=O)c1cccs1 | inactive: 2.1% | 
O=C(Nc1ccccc1)OC1CCC2CC1CCC2OC(=O)Nc1ccccc1 (configuration not stated) |  | inconclusive: 18.5 µM [inhibitor, single point]
O=[N+]([O-])c1ccccc1S(=O)(=O)N1CCN(Cc2ccsc2)CC1 | inactive: -6.8% | 
CSCCC(NC(=O)c1ccccc1)C(=O)NNC(=O)c1csc(N2CCOCC2)n1 (configuration not stated) | inactive: 39% | 
CCCCc1[nH]nc2c1C1(C(=O)N(CC)c3ccccc31)C(C#N)=C(N)O2 (configuration not stated) |  | inconclusive: 11.7 µM [inhibitor, partial curve, poor fit]
Cc1ccccc1C1c2[nH]c3ccccc3c2C[C@H]2C(=O)N(c3ccccc3C(=O)NCCN3CCOCC3)C(=O)N12 (some centres not stated) |  | inconclusive: 14.7 µM [inhibitor, single point]
CC(=O)Nc1ccc(-c2csc(Nc3cc(C)ccn3)n2)cc1 | inactive: -28.5% | 
Cc1[nH]c(=O)[nH]c(=O)c1N1CCOCC1 | inactive: 16.8% | 
CCc1cccc(NC(=O)C2CCCN(c3ncnc4c3nc3n4CCCCC3)C2)c1 (configuration not stated) |  | inconclusive: 13.1 µM [inhibitor, single point]
O=C(CSc1ccc(S(=O)(=O)N2CCOCC2)cn1)Nc1ccc(OC(F)F)cc1 | inactive: -12.9% | 
O=C(CCc1c[nH]c2ccccc12)NCCc1ccc(Cl)cc1 |  | inconclusive: 18.5 µM [inhibitor, single point]
CCNS(=O)(=O)c1ccc(NC(=O)c2cncc(Br)c2)cc1 |  | inconclusive: 18.5 µM [inhibitor, single point]
CC(=O)N1Cc2[nH]c3ccccc3c2CC1C(=O)O (configuration not stated) |  | inconclusive: 18.5 µM [inhibitor, single point]
Cc1cc(C(=O)N/N=C/c2cc(Br)cc(Br)c2OC(=O)c2ccccc2)n[nH]1 | inactive: 21% | 
O=C(CCC(=O)N1CCOc2ccccc21)NCCc1ccccc1 |  | active: 14.7 µM
Cc1ccc(C2C(C(=O)c3cccs3)=C(O)C(=O)N2c2ccc(S(N)(=O)=O)cc2)cc1 (configuration not stated) | inactive: 24.3% | 
CC(=O)Nc1nc(C)c(Oc2ccc(C)cc2)c(=O)[nH]1 |  | inconclusive: 0.0828 µM [inhibitor, full curve, poor fit]
Cc1cc(C(=O)Nc2ccc(Br)cc2)c2ccccc2n1 | inactive: 19.5% | 
CN=C1c2c(-c3ccccc3)c3cc(OC)ccc3n2CCN1C |  | inconclusive: 11.7 µM [inhibitor, single point]
O=S(=O)(/N=C/c1c(O)ccc2ccccc12)c1ccccc1 | inactive: 0% | 
O=C(CN1CCCCCC1)NCC1CCCO1 (configuration not stated) |  | inconclusive: 0.0033 µM [inhibitor, full curve, poor fit]
Cc1cc2c([nH]c3ccccc32)c(C)n1 |  | inconclusive: 18.5 µM [inhibitor, single point]
O=C(N1CCOCC1)n1nnc2ccccc21 | inactive: -0.294% | 

Structure (SMILES) | activity change, negative = inhibition | Potency
Cc1cccc(NC(=O)CSc2nnc(CNC(=O)c3ccco3)o2)c1C |  | inconclusive: 16.5 µM [inhibitor, single point]
COc1cc(C2c3[nH]c4ccccc4c3C[C@H]3C(=O)N(C4CC4)CC(=O)N23)ccc1OC(C)C (some centres not stated) |  | active: 9.28 µM
O=C1ON=C(c2ccc(Cl)cc2)/C1=C/c1ccc(O)cc1 | inactive: 20.4% | 
CC(=O)Nc1nc(SCC(=O)NCc2ccc(F)cc2)[nH]c(=O)c1NC(=O)c1cccs1 | inactive: 9.26% | 
COCCN(C(=O)c1cccc(N2C(=O)CCC2=O)c1)c1nc(-c2ccc([N+](=O)[O-])cc2)cs1 | inactive: 1.68% | 
COc1ccc(CCNC(=O)/C=C/c2cc(OC)c(OC)c(OC)c2)cc1OC |  | inconclusive: 18.5 µM [inhibitor, single point]
N#Cc1ccc(OCC(=O)Nc2ccc3[nH]c(=O)[nH]c3c2)cc1 | inactive: 20.5% | 
C/C=N/NC(=O)CCCC(=O)N/N=C/C |  | inconclusive: 18.5 µM [inhibitor, single point]
CC(C)C1=CC2=CC[C@@H]3[C@](C)(CCC[C@@]3(C)C(=O)O)[C@H]2CC1 |  | inconclusive: 15.1 µM [inhibitor, partial curve, poor fit]
O=C(CCC(=O)c1ccc(F)cc1)NCc1ccccc1C(F)(F)F |  | inconclusive: 18.5 µM [inhibitor, single point]
COc1cccc(C2N(c3ccccn3)C(=O)C3CCCN32)c1OC (configuration not stated) |  | inconclusive: 18.5 µM [inhibitor, single point]
O=C(O)c1ccccc1/C=N/Nc1ccc(S(=O)(=O)N2CCOCC2)cc1[N+](=O)[O-] |  | inconclusive: 13.1 µM [inhibitor, partial curve, poor fit]
Cc1cccc(NC(=O)c2cccc(S(=O)(=O)Nc3ccccc3C(=O)O)c2)c1 |  | inconclusive: 6.57 µM [inhibitor, partial curve, poor fit]
CC(C)c1ccc(/C=C2\SC(=O)N(CC(=O)NC3C=CS(=O)(=O)C3)C2=O)cc1 (configuration not stated) |  | inconclusive: 8.28 µM [inhibitor, partial curve]
CCCN1CCN(CCCNC(=O)Cn2ncc3c4ccccc4n(C)c3c2=O)CC1 | inactive: -74.2% | 
CCN(CC)S(=O)(=O)c1ccc(N2CCCC2)c(NC(=O)Cc2cc(OC)c(OC)c(OC)c2)c1 |  | inconclusive: 3.7 µM [inhibitor, partial curve]
CC1=NN(Cc2ccccc2)C(=O)C1C(c1ccc(Cl)cc1)C(C#N)C#N (configuration not stated) |  | inconclusive: 1.31 µM [inhibitor, full curve, poor fit]
CC(C)OC(=O)c1sc2nc3c(cc2c1N)C(=O)CCC3 |  | active: 5.22 µM
Cc1cc(NS(=O)(=O)c2ccc(NC(=O)COc3ccccc3C(C)C)cc2)no1 |  | inconclusive: 6.57 µM [inhibitor, partial curve]
COCCN1C(=O)c2ccc(C(=O)Nc3nccs3)cc2C1=O | inactive: 3.54% | 
CNc1oc(-c2ccccc2)nc1C#N | inactive: 150% | 
Cc1ccc(CN2CCC(n3nccc3NC(=O)CCCc3ccccc3)CC2)o1 |  | inconclusive: 18.5 µM [inhibitor, partial curve, poor fit]
COCc1cc(C)nc(NC2CC(C)(C)NC(C)(C)C2)c1C#N | inactive: 4.16% | 

Given tab-delimited: entries from further up
Structure (SMILES)	activity change, negative = inhibition	Potency
O=S(=O)(/N=C/c1c(O)ccc2ccccc12)c1ccccc1	inactive: 0%	
COc1ccc(CCNC(=O)/C=C/c2cc(OC)c(OC)c(OC)c2)cc1OC		inconclusive: 18.5 µM [inhibitor, single point]
O=C(O)c1ccccc1/C=N/Nc1ccc(S(=O)(=O)N2CCOCC2)cc1[N+](=O)[O-]		inconclusive: 13.1 µM [inhibitor, partial curve, poor fit]
COCc1cc(C)nc(NC2CC(C)(C)NC(C)(C)C2)c1C#N	inactive: 4.16%	
